IC50 data for one molecule are collected here from patent publication US9018156B2, “Organic nanotube having hydrophobized inner surface, and encapsulated medicinal agent prepared using the nanotube” (National Institute of Advanced Industrial Science and …, priority 2011, dated 2015).

The structures appear in SMILES notation.

This experiment relates to HeLa cells. Kind of experiment: Cytotoxicity evaluation of drug composition in vitro (WST-8 assay). The note with it: Homo sapiens, cultured 24 hours at 37° C., tube/Dox molar ratio 7, read-out: IC50 (half maximal inhibitor concentration). It is filed as cell-based. Here is the method: Toxicity evaluation may be performed by adding and culturing encapsulated doxorubicin in various asymmetric nanotubes using HeLa cells and evaluating the number of cells. Comparison with doxorubicin itself and evaluation of nanotube itself may be performed by the same method.
Cytotoxicity of various asymmetric nanotubes encapsulating doxorubicin obtained in Example 8 was evaluated as follows. That is, HeLa cells (1×10^4) and various nanotubes encapsulating doxorubicin obtained in Example 8 were added into a 96-well plate so that concentrations of doxorubicin became equal to each other, using a Dulbecco's modified eagle medium (DMEM) added with fetal bovine serum (10%) as a cell culture medium for encapsulation and cultured at 37° C. under 5% CO2 atmosphere for 24 hours. The concentration of doxorubicin was 0.01 to 20 μg/mL. Further, a molar ratio (Compound 1/Dox) of the tube to doxorubicin in the used encapsulation body was 7. As a control experiment, the same experiment was performed on doxorubicin. After culture, the supernatant was removed, and the obtained cells was washed with a PBS buffer (pH 7.4). Thereafter, cell viability was investigated through WST-8 assay, thereby calculating the half maximal inhibitor concentration (IC50). […]
A general note: Tetrazolium assays rely on reduction of a dye to a coloured formazan, in cell work by metabolically active cells.

In the case of `COc1cccc2c1C(=O)c1c(O)c3c(c(O)c1C2=O)C[C@@](O)(C(=O)CO)C[C@@H]3O[C@H]1C[C@H](N)[C@H](O)[C@H](C)O1` [Dox, doxorubicin], the IC50 was 0.91 ± 0.12 µg/mL.
